Among the data in publication PMC10493204 are binding values, retold here.

Sequences of proteins named here, by UniProt entry; tags and fusion partners are left off. A change or cut given only in a name is not applied to a line headed by its entry.
UniProt Q99N13: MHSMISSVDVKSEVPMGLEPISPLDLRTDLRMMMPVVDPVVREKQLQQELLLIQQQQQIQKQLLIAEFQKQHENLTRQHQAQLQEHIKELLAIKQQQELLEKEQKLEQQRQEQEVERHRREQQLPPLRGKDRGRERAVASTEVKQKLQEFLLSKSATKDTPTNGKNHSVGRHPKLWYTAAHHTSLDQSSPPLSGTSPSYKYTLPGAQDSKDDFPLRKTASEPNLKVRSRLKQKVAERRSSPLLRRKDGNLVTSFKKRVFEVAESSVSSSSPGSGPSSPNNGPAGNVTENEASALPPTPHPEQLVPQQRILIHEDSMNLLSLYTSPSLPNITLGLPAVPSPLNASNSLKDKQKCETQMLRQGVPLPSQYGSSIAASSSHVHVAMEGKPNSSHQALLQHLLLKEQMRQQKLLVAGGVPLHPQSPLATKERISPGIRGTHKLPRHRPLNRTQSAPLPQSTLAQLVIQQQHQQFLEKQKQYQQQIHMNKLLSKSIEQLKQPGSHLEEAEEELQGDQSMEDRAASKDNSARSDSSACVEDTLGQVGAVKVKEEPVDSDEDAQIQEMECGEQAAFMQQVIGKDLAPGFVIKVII
UniProt P07356: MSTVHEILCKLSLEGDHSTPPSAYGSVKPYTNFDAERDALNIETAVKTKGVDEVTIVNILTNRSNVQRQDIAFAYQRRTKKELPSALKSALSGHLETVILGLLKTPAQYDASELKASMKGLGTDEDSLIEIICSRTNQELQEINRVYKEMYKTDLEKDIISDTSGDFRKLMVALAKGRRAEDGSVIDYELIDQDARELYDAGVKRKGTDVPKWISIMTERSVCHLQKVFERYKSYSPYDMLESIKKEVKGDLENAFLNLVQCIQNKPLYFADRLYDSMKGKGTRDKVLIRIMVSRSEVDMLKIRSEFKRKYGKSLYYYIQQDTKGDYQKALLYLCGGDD
UniProt Q61879: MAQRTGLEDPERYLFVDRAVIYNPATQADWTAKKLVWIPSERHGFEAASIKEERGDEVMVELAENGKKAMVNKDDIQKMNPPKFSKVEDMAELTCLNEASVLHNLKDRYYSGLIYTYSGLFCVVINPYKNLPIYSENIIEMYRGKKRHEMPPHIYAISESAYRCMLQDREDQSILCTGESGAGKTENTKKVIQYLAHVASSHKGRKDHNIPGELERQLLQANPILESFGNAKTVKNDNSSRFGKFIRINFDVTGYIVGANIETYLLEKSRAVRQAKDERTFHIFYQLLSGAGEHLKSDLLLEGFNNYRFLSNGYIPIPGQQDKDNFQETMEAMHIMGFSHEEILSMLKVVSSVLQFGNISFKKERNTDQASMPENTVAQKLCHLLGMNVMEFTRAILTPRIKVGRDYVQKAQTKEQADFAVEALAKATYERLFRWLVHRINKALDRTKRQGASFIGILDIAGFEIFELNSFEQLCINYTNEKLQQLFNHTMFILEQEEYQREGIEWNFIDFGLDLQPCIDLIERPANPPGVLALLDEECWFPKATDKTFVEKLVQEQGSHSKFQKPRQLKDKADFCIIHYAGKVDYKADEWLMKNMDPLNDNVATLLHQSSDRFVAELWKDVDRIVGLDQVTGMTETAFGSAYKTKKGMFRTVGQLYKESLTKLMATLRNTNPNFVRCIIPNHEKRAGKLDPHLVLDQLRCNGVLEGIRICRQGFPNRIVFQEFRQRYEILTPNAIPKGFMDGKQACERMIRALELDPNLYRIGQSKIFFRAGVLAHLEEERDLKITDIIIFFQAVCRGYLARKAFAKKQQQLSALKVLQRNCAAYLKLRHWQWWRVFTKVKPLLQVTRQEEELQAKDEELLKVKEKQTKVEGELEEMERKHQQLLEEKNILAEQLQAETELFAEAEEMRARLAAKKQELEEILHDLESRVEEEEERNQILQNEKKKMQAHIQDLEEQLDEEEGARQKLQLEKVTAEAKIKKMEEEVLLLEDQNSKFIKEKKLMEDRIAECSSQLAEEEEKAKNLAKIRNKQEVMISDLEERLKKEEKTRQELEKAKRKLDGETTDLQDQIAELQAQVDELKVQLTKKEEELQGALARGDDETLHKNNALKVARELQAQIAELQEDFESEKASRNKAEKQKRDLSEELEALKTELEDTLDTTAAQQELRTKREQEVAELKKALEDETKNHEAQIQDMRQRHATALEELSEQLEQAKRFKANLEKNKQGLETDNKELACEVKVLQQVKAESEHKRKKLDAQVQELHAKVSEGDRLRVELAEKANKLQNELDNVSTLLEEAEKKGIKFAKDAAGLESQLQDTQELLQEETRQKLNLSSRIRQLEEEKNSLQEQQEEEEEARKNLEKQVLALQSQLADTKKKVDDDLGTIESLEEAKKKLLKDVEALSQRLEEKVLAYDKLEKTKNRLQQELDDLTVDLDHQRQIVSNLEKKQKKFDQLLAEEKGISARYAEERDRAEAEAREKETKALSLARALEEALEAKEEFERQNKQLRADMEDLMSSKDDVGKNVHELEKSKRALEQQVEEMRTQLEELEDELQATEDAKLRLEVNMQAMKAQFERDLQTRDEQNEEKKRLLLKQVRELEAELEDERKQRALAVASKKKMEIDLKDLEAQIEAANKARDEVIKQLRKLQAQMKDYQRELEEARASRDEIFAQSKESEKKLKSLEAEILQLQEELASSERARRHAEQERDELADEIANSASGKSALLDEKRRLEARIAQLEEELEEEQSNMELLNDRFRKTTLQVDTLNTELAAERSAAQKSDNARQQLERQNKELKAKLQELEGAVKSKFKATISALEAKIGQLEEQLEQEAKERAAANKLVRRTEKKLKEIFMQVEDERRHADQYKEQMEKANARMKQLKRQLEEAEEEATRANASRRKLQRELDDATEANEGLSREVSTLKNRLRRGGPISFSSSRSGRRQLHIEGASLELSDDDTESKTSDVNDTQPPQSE

No constants are given. Whether binding was seen depends on the method and setting. Binding seen in cells or lysates may run through a third protein. A yes stands for co-enrichment or nearness to the bait. Other partners may have been found.

For the test, the target named is Histone deacetylase 9 (mouse (endogenous in hippocampus)) (UniProt Q99N13). Nature of the test: affinity purification with mass spectrometry; immunoprecipitation of HDAC9 from hippocampus of mice exposed or not to CRS, mass spectrometry of the co-immunoprecipitated proteins.

Consider Annexin A2 (from UniProt P07356 1-339), for which the binding result is “binds”.

Take Myh10 (from UniProt Q61879 1-1976): the binding result is given as “binds”.
